Reference: PMC7954791, “MAGIs regulate aPKC to enable balanced distribution of intercellular tension for epithelial sheet homeostasis” (Communications Biology, 2021)
These are yes or no findings as the source states them, for the method shown. Binding seen in cells or lysates may run through a third protein.

Biological target: T1, MAGI-3 (UniProt Q9EQJ9)
T1 sequence: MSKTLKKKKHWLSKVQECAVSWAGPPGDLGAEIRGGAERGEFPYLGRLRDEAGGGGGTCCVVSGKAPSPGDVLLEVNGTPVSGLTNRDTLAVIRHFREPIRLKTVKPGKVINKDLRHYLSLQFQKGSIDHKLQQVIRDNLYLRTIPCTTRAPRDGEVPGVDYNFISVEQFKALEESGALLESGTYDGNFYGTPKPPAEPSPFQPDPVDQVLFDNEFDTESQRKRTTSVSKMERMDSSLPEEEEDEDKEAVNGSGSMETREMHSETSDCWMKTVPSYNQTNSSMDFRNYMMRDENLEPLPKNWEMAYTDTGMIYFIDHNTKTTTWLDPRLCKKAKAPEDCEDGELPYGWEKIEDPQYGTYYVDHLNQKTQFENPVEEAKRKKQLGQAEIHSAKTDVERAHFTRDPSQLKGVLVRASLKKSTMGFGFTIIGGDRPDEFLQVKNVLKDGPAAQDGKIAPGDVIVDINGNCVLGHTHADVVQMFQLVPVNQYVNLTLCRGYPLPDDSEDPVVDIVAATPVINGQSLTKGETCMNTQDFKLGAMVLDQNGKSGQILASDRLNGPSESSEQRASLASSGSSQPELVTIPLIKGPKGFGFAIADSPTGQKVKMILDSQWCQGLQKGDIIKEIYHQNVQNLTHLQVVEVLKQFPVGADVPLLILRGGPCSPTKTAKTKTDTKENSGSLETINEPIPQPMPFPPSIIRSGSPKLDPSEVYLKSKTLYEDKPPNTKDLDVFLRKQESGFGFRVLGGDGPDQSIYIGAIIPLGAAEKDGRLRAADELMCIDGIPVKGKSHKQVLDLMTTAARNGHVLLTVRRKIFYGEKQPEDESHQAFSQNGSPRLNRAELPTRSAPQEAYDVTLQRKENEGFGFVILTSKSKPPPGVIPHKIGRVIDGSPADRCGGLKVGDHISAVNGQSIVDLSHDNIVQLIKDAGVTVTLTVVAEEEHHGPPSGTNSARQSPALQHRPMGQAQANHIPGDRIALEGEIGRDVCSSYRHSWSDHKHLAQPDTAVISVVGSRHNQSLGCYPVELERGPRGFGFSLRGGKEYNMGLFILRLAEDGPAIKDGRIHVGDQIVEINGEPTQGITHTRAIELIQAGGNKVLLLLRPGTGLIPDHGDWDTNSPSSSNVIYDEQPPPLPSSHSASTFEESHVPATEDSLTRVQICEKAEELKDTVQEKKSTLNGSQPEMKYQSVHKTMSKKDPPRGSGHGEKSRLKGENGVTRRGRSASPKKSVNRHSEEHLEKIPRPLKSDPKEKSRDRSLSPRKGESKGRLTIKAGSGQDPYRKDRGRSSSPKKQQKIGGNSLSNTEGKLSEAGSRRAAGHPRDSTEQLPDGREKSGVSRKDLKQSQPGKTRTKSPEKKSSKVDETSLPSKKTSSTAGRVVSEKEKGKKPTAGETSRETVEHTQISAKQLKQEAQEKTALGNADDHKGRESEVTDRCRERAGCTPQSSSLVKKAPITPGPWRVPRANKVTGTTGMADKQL
Test: co-IP; FLAG immunoprecipitation in a heterologous expression system; anti-DYKDDDDK mAb beads 2 h; 20 mM Tris-HCl pH 7.5, 150 mM NaCl, 1% Triton X-100; blots with anti-FLAG, anti-HA, anti-GFP

For RASSF10 ΔPDZ (domain or fragment), the binding was “no binding”.
